Results are given in words; binding and its absence hold for the method and conditions named.

This assay addresses T1, Filgrastim reference standard (rhG-CSF, NIBISC) (human), P09919.
T1 chain: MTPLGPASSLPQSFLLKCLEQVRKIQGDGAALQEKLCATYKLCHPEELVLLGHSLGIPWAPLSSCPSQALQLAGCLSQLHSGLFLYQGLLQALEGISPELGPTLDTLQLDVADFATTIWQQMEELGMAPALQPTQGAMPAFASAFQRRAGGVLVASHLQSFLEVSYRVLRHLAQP
In words: SEC; size-exclusion HPLC, BioSep-SEC 2000 column, room temperature, mobile phase 0.1 M phosphoric acid pH 2.5, 1 mL/min, 200 μg mL^-1 of sample or standard loaded, detection at 214 nm; both purified. The note with it: remark: other sources report otherwise. Background: SEC sorts molecules by how far they enter the pores of the column.

B1: Filgrastim reference standard (rhG-CSF, NIBISC), P09919-2 31-204 (protein)
chain: T1 chain
Consider B1, for which the binding result is listed as “no binding (tested: 200 μg mL^-1)”.

Values taken from article PMC2346455.
